Data taken from patent publication US20240067640 (published 2024).

Assay: general procedure: solution-phase peptide synthesis; PyBOP/HOBt/DIPEA

Row | Substance | conjugation yield (conjugation step) [% yield] | step yield (late stage modification step) [%]
1 | 2-[[2-[[2-[[2-[[2-[[2-[[2-[[2-[[2-[[2-[[2-[3-[[(1S)-2-[[(1S)-2-[[2-[(1S,2S,4R,6R,8S,9S,11S,12R,13S,19S)-12,19-difluoro-6-(3-fluorophenyl)-11-hydroxy-9,13-dimethyl-16-oxo-5,7-dioxapentacyclo[10.8.0.02,9.04,8.013,18]icosa-14,17-dien-8-yl]-2-oxo-ethoxy]methylamino]-1-methyl-2-oxo-ethyl]amino]-1-methyl-2-oxo-ethyl]amino]-3-oxo-propyl]-5-(2,5-dioxopyrrol-1-yl)benzoyl]-methyl-amino]acetyl]-methyl-amino]acetyl]-methyl-amino]acetyl]-methyl-amino]acetyl]-methyl-amino]acetyl]-methyl-amino]acetyl]-methyl-amino]acetyl]-methyl-amino]acetyl]-methyl-amino]acetyl]-methyl-amino]acetic acid | 15.89 | –
2 | (S)-11-benzyl-1-(9H-fluoren-9-yl)-3,6,9,12,15-pentaoxo-2-oxa-4,7,10,13,16-pentaazaheptadecan-17-yl acetate | – | 41
